Measured values: publication PMC10761714
No constants are given. Whether binding was seen depends on the method and setting. Binding seen in cells or lysates may run through a third protein. These calls come from enrichment with a bait or labelling near it, and not all partners need be listed.

B1: CCT2 (protein, UniProt P80314 1-535)
chain: MASLSLAPVNIFKAGADEERAETARLSSFIGAIAIGDLVKSTLGPKGMDKILLSSGRDAALMVTNDGATILKNIGVDNPAAKVLVDMSRVQDDEVGDGTTSVTVLAAELLREAESLIAKKIHPQTIISGWREATKAAREALLSSAVDHGSDEARFWQDLMNIAGTTLSSKLLTHHKDHFTKLAVEAVLRLKGSGNLEAIHVIKKLGGSLADSYLDEGFLLDKKIGVNQPKRIENAKILIANTGMDTDKIKIFGSRVRVDSTAKVAEIEHAEKEKMKEKVERILKHGINCFINRQLIYNYPEQLFGAAGVMAIEHADFAGVERLALVTGGEIASTFDHPELVKLGSCKLIEEVMIGEDKLIHFSGVALGEACTIVLRGATQQILDEAERSLHDALCVLAQTVKDPRTVYGGGCSEMLMAHAVTQLANRTPGKEAVAMESFAKALRMLPTIIADNAGYDSADLVAQLRAAHSEGHITAGLDMKEGTIGDMAVLGITESFQVKRQVLLSAAEAAEVILRVDNIIKAAPRKRVPDHHPC
B2: CCT3 (protein, UniProt P80318 1-545)
chain: MMGHRPVLVLSQNTKRESGRKVQSGNINAAKTIADIIRTCLGPKSMMKMLLDPMGGIVMTNDGNAILREIQVQHPAAKSMIEISRTQDEEVGDGTTSVIILAGEMLSVAEHFLEQQMHPTVVISAYRMALDDMISTLKKISTPVDVNNREMMLSIINSSITTKVISRWSSLACNIALDAVKTVQFEENGRKEIDIKKYARVEKIPGGIIEDSCVLRGVMINKDVTHPRMRRYIKNPRIVLLDSSLEYKKGESQTDIEITREEDFTRILQMEEEYIHQLCEDIIQLKPDVVITEKGISDLAQHYLMRANVTAIRRVRKTDNNRIARACGARIVSRPEELREDDVGTGAGLLEIKKIGDEYFTFITDCKDPKACTILLRGASKEILSEVERNLQDAMQVCRNVLLDPQLVPGGGASEMAVAHALTEKSKAMTGVEQWPYRAVAQALEVIPRTLIQNCGASTIRLLTSLRAKHTQESCETWGVNGETGTLVDMKELGIWEPLAVKLQTYKTAVETAVLLLRIDDIVSGHKKKGDDQNRQTGAPDAGQE
B3: CCT4 (protein, UniProt P80315 1-539)
chain: MPENVASRSGAPTAGPGSRGKSAYQDRDKPAQIRFSNISAAKAVADAIRTSLGPKGMDKMIQDGKGDVTITNDGATILKQMQVLHPAARMLVELSKAQDIEAGDGTTSVVIIAGSLLDSCTKLLQKGIHPTIISESFQKALEKGLEILTDMSRPVQLSDRETLLNSATTSLNSKVVSQYSSLLSPMSVNAVMKVIDPATATSVDLRDIKIVKKLGGTIDDCELVEGLVLTQKVANSGITRVEKAKIGLIQFCLSAPKTDMDNQIVVSDYAQMDRVLREERAYILNLVKQIKKTGCNVLLIQKSILRDALSDLALHFLNKMKIMVVKDVEREDIEFICKTIGTKPVAHIDQFTADMLGSAELAEEVSLNGSGKLFKITGCTSPGKTVTIVVRGSNKLVIEEAERSIHDALCVIRCLVKKRALIAGGGAPEIELALRLTEYSRTLSGMESYCVRAFADAMEVIPSTLAENAGLNPISTVTELRNRHAQGEKTTGINVRKGGISNILEEMVVQPLLVSVSALTLATETVRSILKIDDVVNTR
B4: CCT7 (protein, UniProt P80313 1-544)
chain: MMPTPVILLKEGTDSSQGIPQLVSNISACQVIAEAVRTTLGPRGMDKLIVDGRGKATISNDGATILKLLDVVHPAAKTLVDIAKSQDAEVGDGTTSVTLLAAEFLKQVKPYVEEGLHPQIIIRAFRTATQLAVNKIKEIAVTVKKQDKVEQRKMLEKCAMTALSSKLISQQKVFFAKMVVDAVMMLDELLQLKMIGIKKVQGGALEESQLVAGVAFKKTFSYAGFEMQPKKYKNPKIALLNVELELKAEKDNAEIRVHTVEDYQAIVDAEWNILYDKLEKIHQSGAKVILSKLPIGDVATQYFADRDMFCAGRVPEEDLKRTMMACGGSIQTSVNALVPDVLGHCQVFEETQIGGERYNFFTGCPKAKTCTIILRGGAEQFMEETERSLHDAIMIVRRAIKNDSVVAGGGAIEMELSKYLRDYSRTIPGKQQLLIGAYAKALEIIPRQLCDNAGFDATNILNKLRARHAQGGMWYGVDINNENIADNFQAFVWEPAMVRINALTAASEAACLIVSVDETIKNPRSTVDPPAPSAGRGRGQARFH
B5: CCT8 (protein, UniProt P42932 1-548)
chain: MALHVPKAPGFAQMLKDGAKHFSGLEEAVYRNIQACKELAQTTRTAYGPNGMNKMVINRLEKLFVTNDAATILRELEVQHPAAKMIVMASHMQEQEVGDGTNFVLVFAGALLELAEELLRIGLSVSEVISGYEIACKKAHEILPELVCCSAKNLRDVDEVSSLLRTSIMSKQYGSETFLAKLIAQACVSIFPDSGNFNVDNIRVCKILGSGIYSSSVLHGMVFKKETEGDVTSVKDAKIAVYSCPFDGMITETKGTVLIKTAEELMNFSKGEENLMDAQVKAIAGTGANVIVTGGKVADIALHYANKYNIMLVRLNSKWDLRRLCKTVGATALPKLTPPVQEEMGHCDSVYLSEVGDTQVVVFKHEKEDGAISTIVLRGSTDNLMDDIERAVDDGVNTFKVLTRDKRLVPGGGATEIELAKQITSYGETCPGLEQYAIKKFAEAFEAIPRALAENSGVKANEVISKLYSVHQEGNKNVGLDIEAEVPAVKDMLEASILDTYLGKYWAIKLATNAAVTVLRVDQIIMAKPAGGPKPPSGKKDWDDDQND

Target: GST-MBP-fused mouse STYXL1 protein (mouse)
Experiment: affinity purification with mass spectrometry; GST-MBP–STYXL1 on glutathione–Sepharose 4B; pre-cleared WT mouse testes lysate (RIPA) incubated at 4 °C for 4-6 h; washed with 50 mM Tris-HCl pH 8.0, 150 mM NaCl, 2 mM MgCl2, 5% glycerol; eluted with 20 mM GSH; LC-MS/MS; GST-MBP as control; only the target purified

binding, binds:
B1, B2, B3, B4, B5
